Data: patent US7851592B2, “Compositions and methods for inhibiting G2 cell cycle arrest and sensitizing cells to DNA damaging agents” (CanBas Co. Ltd., priority 1999, dated 2010)
Not every detail of the peptide structures is certain; ends, links or a residue may be inferred. Where no end group is shown, it is not given here.

Amino acid sequences for entries named in this document (tags omitted).
UniProt O96017, whole entry: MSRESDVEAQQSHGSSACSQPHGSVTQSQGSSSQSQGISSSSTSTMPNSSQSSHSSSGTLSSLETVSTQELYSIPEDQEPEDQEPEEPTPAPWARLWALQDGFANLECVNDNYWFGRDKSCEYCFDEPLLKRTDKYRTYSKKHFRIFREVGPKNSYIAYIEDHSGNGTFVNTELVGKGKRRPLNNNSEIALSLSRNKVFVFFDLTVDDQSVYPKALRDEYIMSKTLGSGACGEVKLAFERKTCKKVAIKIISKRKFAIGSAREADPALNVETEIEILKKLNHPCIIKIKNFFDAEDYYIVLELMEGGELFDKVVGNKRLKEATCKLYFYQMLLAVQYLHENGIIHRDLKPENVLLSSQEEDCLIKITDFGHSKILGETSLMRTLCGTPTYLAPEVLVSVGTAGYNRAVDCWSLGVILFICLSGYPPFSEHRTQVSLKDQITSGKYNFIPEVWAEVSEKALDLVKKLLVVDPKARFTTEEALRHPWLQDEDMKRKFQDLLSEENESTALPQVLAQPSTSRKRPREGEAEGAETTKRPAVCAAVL

What was measured:
hChk1 = molecular target: T1, hChk1 (Homo sapiens, UniProt O14757, I471V); experiment: In vitro immune complex kinase assay, Cdc25C phosphorylation by purified hChk1; assay type: biochemical; details: for hChk1 kinase activity in vitro: FIG. 1; for hChk1 kinase activity in vitro / phosphorylation of GST-Cdc25C (amino acid 200-256) by baculovirus-produced hChk1: peptide 10 μM; for phosphorylation of the peptide itself by hChk1 / phosphorylation of GST-Cdc25C (amino acid 200-256) by baculovirus-produced hChk1: FIG. 1B; for phosphorylation of GST-Cdc25C (amino acid 200-256) by baculovirus-produced hChk1: substrate 1 μM
T1 construct: made in house; host or cells: insect cells, recombinant baculovirus (lysates provided by Dr. Makoto Nakanishi)
T1 sequence (O14757 1-476 I471V): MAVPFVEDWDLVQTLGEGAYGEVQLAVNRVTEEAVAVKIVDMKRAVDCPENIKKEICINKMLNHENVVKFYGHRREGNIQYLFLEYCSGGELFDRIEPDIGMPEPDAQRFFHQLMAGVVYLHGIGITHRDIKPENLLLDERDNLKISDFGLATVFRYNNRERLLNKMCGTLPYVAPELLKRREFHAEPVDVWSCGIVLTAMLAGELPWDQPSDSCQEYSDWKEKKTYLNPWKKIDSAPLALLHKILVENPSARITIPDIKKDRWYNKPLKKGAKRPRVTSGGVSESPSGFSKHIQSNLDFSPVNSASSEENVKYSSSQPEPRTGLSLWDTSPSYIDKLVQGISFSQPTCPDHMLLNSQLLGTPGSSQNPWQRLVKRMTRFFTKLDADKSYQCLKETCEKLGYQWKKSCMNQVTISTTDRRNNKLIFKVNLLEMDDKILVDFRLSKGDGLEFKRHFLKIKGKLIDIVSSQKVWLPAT
Protocol: Kinase assay. HA-tagged hChk1 (SEQ ID NO:3) and c-myc-tagged Chk2/HuCds1 (SEQ ID NO:4) expressed in insect cells using recombinant baculovirus (see, e.g., Kaneko (1999) Oncogene 18:3673-3681) were purified by immunoprecipitation using anti-HA or anti-c-myc antibodies and protein G-Sepharose. Immune complex kinase reaction was done in PBS with 1 mM DTT, 1 mM MgCl2 and 100 μCi of [γ-^32P] ATP (Amersham; 6000 Ci/mmol) plus purified 1 μM GST-Cdc25C or 10 μM Cdc25C peptide (amino acid 211 to 221 of Cdc25C (SEQ ID NO: 2); […], Sawady Technology Co.) substrates at 30° C. for 15 min in the presence of 10 μM TAT-S216, TAT-S216A or TAT-Control. After the reaction, samples were separated in 12% or 15% SDS-PAGE and autoradiographed to detect GST-Cdc25C or peptide phosphorylation.
The results are shown in FIG. 1: TAT-S216A and TAT-S216 peptides inhibit hChk1 and Chk2/HuCds1 kinase activities in vitro. FIG. 1A. sequences of the peptides. FIG. 1B, in vitro phosphorylation analysis using GST-Cdc25C and purified hChk1. GST-Cdc25C (amino acid 200-256) that was produced in E. coli (DH5α) was used as substrate (1 μM). Immune complex kinase reaction was done in the presence of TAT-S216A (10 μM) or TAT-S216 (10 μM). FIG. 1C, in vitro phosphorylation analysis of hChk1 and Chk2/HuCds1 using synthesized Cdc25C peptide corresponding amino acid 211-221 of Cdc25C ([…] (SEQ ID NO: 2)) as a substrate (10 μM).

Jurkat cells [1] = experiment: Trypan blue dye exclusion analysis of Jurkat cells treated with bleomycin or colchicine with or without peptides; assay type: cell-based; details: FIG. 3A; for effect on bleomycin-induced cell death / viability of bleomycin-treated Jurkat cells: bleomycin 5 or 10 μg/ml, peptide 10 μM; for Jurkat cells killed, bleomycin plus peptide: bleomycin plus 10 μM peptide
Protocol: The effect of TAT-S216A and TAT-S216 on the cell death induced by bleomycin was examined. The results are shown in FIG. 3; Trypan blue dye exclusion analysis of Jurkat cells treated with bleomycin (A) or colchicine (B) with or without indicated peptides. Bars, SD Vertical axis, % viability of the cells; Bleo 5, bleomycin 5 μg/ml; Bleo 10, bleomycin 10 μg/ml; colchicine, 5 μg/ml; TAT-S216 or TAT-S216A, 10 μM of indicated peptide. […] C, survival analysis of PHA blasts treated with bleomycin and peptides. Vertical axis, % viability of the cells determined by trypan blue dye exclusion analysis; horizontal axis, time in hours. Bleo 5, bleomycin 5 μg/ml; Bleo 10, bleomycin 10 μg/ml; TAT-S216 or TAT-S216A, 10 μM of indicated peptide. D, FACS analysis of the cells treated with bleomycin and peptides. PHA-blasts were treated with bleomycin with or without peptides for 20 hr. Vertical axis, cell number; horizontal axis, DNA content indicated by propidium iodide staining.

Chk2/HuCds1 = molecular target: T2, Chk2/HuCds1 (Homo sapiens, UniProt O96017); experiment: In vitro immune complex kinase assay, Cdc25C peptide phosphorylation by purified Chk2/HuCds1; assay type: biochemical; details: for Chk2/HuCds1 kinase activity in vitro: FIG. 1, peptide 10 μM
T2 construct: made in house; host or cells: insect cells, recombinant baculovirus (lysates provided by Dr. Makoto Nakanishi)

Jurkat cells [2] = experiment: Cell-cycle analysis by FACS, DNA damage-induced G2 arrest; assay type: cell-based, human; details: for G2 arrest in response to bleomycin: FIG. 2A, bleomycin 10 μg/ml, peptide 10 μM, 20 hr; for G2 arrest in response to bleomycin, time course: bleomycin plus peptide, 12 to 48 hr; for G2 arrest induced by cisplatin: cisplatin 1 μg/ml for 1 hr treatment; for G2 arrest induced by gamma-irradiation: gamma-irradiation 5 Gy
Protocol: Cell-cycle analysis. The cell cycle status of the cells treated with peptides and/or bleomycin or colchicine was analyzed by FACS, as described by Kawabe (1997) Nature 385:454-458. In brief, two million Jurkat cells were re-suspended and incubated in 300 μl Krishan's solution (0.1% Sodium citrate, 50 μg/ml PI, 20 μg/ml RNase A and 0.5% NP-40; see supra) for 1 hr at 4° C. and analyzed by FACScan™ (Beckton Dickinson, Mountain View, Calif.) with the program CELLQuest™ (Beckton Dickinson).
The cell cycle status of the cells treated with TAT-S216A or TAT-S216 upon the DNA damage-induced G2 arrest was analyzed by FACS analysis. Histone H1 kinase activities of theses cells were simultaneously monitored. […] Results are shown in FIG. 2: abrogation of DNA damage-induced G2 arrest by TAT-S216A and TAT-S216 peptides. FIG. 2A, FACS analysis of Jurkat cells treated with bleomycin and peptides. Cells were treated with bleomycin (10 μg/ml) with or without peptides (10 μM) for 20 hr. B, histone H1 kinase analysis. Cell lysates were prepared from the cells treated with the indicated reagent for 6 hr. Concentrations used were: hydroxyurea (HU), 100 μg/ml; bleomycin (Bleo), 10 μg/ml; colchicine, 5 μg/ml; TAT-S216A and TAT-S216, 10 μM. C, FACS analysis of colchicine -and peptide-treated cells. Jurkat cells were treated with colchicine (5 μg/ml) with or without peptide (10 μM) for 20 hr.

[3] = FIG. 1C, substrate 10 μM, four times molar excess of peptide against substrate

Sequence	hChk1 kinase activity in vitro (hChk1)	phosphorylation of the peptide itself by hChk1 (hChk1)	phosphorylation of GST-Cdc25C (amino acid 200-256) by baculovirus-produced hChk1 (hChk1)	phosphorylation of Cdc25C peptide mediated by hChk1 (hChk1; [3])	effect on bleomycin-induced cell death / viability of bleomycin-treated Jurkat cells (Jurkat cells [1])	Jurkat cells killed, bleomycin plus peptide (Jurkat cells [1]) [%]	Chk2/HuCds1 kinase activity in vitro (Chk2/HuCds1)	phosphorylation of Cdc25C peptide mediated by Chk2/HuCds1 (Chk2/HuCds1; [3])	G2 arrest in response to bleomycin (Jurkat cells [2])	G2 arrest in response to bleomycin, time course (Jurkat cells [2])	G2 arrest induced by cisplatin (Jurkat cells [2])	G2 arrest induced by gamma-irradiation (Jurkat cells [2])
YGRKKRRQRRRLYRSPAMPENL [TAT-S216A]	inhibit	not TAT-S216A was efficiently phosphorylated	inhibited the phosphorylation of Cdc25C	significantly inhibited	efficiently sensitized	~80	inhibit	significantly inhibited	completely abrogated	abrogated at any time point between 12 and 48 hr	abrogated G2 arrest	abrogated G2 arrest
YGRKKRRQRRRLYRSPSMPENL [TAT-S216]	inhibit	efficiently phosphorylated	inhibited the phosphorylation of Cdc25C		efficiently sensitized	~80	inhibit		completely abrogated	abrogated at any time point between 12 and 48 hr	abrogated G2 arrest	abrogated G2 arrest
